Among the data in article PMC12727695 are binding values, retold here.

Amino acid sequences for entries named in this document (tags omitted). Residues count along the entry.
UniProt Q9D9E0: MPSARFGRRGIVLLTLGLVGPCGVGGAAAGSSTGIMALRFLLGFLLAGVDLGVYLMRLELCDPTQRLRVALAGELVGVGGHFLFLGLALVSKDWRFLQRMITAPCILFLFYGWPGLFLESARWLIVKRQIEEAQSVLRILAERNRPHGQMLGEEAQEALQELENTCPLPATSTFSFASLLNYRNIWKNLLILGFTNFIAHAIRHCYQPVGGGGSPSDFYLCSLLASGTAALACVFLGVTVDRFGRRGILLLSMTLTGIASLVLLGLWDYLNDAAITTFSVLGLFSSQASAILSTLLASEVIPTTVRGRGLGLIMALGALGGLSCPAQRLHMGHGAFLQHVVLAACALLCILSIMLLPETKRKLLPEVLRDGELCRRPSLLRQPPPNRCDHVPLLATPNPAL
UniProt P80188, residues 21-198: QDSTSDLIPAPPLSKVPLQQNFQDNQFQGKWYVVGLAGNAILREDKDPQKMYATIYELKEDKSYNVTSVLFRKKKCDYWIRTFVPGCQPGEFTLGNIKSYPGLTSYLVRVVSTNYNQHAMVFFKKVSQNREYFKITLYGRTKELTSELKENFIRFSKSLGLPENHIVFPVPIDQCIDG

This assay concerns the target SLC22A17 (mouse (endogenous in primary mouse astrocytes)) (UniProt Q9D9E0). Nature of the assay: co-IP; lysates of astrocytes cocultured with TC1-OE cells; incubated overnight with target antibodies at 4 °C, then 30 min with protein A/G beads at room temperature; five washes; immunoblotting; the precipitating antibody is not told. Background: A western blot detects proteins with antibodies after separation by electrophoresis.

Results are given in words; binding and its absence hold for the method and conditions named. In cells and extracts the contact can be indirect. Some binding calls cover weakened binding; strength is not graded here.

On to “Lipocalin-2 (LCN2) (from UniProt P80188 21-198) (ligand)”, for which the binding result is recorded as “binds”.
